The results in this text go back to the supplement of paper PMC10849652.

Protein sequences, listed by entry. Tags and fused reporters are not part of them. Lines headed by an entry give the natural chain unless they say otherwise; changes in a name come on top.
UniProt Q9Y4B5: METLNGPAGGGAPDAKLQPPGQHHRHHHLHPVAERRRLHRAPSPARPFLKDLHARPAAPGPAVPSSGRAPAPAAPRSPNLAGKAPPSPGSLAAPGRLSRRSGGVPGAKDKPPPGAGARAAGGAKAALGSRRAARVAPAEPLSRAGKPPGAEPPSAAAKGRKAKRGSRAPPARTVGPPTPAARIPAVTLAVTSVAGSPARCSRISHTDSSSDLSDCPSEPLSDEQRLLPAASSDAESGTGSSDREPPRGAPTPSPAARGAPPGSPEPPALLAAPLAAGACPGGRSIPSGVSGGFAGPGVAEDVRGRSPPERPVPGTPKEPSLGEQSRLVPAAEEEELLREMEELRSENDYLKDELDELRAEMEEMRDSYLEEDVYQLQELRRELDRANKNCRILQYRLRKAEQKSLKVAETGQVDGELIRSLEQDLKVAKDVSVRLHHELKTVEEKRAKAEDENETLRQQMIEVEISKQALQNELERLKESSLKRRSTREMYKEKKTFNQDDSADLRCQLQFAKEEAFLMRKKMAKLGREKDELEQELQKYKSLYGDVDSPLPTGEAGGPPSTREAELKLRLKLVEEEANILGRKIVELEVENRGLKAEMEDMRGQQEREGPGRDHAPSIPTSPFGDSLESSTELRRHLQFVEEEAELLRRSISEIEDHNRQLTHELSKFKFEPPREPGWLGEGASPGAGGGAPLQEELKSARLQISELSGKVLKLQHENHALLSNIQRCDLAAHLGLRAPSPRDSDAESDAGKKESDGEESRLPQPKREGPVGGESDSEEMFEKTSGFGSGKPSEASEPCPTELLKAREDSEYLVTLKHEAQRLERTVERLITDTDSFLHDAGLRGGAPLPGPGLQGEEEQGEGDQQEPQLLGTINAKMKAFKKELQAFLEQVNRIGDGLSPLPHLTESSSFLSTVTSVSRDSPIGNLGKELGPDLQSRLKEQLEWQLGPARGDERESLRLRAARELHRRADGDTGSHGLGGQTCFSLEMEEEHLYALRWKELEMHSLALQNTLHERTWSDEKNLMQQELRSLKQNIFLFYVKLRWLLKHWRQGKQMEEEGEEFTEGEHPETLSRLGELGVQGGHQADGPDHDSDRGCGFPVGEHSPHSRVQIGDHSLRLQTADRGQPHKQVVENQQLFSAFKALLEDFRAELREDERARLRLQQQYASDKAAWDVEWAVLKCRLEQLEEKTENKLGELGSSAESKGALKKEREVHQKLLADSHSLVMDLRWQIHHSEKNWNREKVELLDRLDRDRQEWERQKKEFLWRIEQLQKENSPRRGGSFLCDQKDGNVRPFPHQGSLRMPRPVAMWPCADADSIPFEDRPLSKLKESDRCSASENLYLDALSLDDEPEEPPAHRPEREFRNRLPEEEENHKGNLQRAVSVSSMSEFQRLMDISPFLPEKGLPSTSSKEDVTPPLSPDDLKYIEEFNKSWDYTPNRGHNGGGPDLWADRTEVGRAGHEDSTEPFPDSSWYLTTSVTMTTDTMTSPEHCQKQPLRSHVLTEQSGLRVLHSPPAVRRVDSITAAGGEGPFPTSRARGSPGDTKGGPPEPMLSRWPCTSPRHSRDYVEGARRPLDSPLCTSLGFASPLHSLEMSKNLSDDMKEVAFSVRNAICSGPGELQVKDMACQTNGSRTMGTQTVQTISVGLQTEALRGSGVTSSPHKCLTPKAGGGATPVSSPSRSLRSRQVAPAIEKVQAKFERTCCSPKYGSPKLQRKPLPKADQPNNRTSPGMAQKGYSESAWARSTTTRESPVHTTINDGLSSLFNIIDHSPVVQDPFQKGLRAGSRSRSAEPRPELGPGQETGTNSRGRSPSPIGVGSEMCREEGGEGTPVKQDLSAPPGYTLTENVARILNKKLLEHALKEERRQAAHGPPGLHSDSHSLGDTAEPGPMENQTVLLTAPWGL
UniProt Q15800: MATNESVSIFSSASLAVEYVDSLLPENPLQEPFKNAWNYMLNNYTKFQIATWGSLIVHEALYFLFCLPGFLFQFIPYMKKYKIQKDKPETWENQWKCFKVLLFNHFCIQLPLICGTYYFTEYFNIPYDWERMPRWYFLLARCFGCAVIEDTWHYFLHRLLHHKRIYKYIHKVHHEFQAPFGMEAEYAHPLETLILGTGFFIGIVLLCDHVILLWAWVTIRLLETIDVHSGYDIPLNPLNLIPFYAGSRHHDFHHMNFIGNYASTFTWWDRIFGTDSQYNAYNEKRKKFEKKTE
UniProt Q96DH6: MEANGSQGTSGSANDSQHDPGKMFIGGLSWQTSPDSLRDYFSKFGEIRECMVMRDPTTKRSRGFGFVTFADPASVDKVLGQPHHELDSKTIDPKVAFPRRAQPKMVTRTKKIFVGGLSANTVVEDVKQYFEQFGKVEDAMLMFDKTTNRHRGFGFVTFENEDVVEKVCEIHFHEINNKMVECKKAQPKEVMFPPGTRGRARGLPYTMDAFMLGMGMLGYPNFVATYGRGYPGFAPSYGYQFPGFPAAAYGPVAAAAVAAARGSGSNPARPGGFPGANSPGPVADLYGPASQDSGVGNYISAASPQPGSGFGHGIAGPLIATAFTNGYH
UniProt Q96E11: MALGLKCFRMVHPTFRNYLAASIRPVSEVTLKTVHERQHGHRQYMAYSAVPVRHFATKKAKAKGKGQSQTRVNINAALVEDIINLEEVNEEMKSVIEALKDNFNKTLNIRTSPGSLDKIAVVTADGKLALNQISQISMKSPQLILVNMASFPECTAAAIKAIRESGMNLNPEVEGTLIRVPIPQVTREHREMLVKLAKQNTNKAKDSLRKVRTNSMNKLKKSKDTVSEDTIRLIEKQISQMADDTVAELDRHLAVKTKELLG
UniProt Q13330: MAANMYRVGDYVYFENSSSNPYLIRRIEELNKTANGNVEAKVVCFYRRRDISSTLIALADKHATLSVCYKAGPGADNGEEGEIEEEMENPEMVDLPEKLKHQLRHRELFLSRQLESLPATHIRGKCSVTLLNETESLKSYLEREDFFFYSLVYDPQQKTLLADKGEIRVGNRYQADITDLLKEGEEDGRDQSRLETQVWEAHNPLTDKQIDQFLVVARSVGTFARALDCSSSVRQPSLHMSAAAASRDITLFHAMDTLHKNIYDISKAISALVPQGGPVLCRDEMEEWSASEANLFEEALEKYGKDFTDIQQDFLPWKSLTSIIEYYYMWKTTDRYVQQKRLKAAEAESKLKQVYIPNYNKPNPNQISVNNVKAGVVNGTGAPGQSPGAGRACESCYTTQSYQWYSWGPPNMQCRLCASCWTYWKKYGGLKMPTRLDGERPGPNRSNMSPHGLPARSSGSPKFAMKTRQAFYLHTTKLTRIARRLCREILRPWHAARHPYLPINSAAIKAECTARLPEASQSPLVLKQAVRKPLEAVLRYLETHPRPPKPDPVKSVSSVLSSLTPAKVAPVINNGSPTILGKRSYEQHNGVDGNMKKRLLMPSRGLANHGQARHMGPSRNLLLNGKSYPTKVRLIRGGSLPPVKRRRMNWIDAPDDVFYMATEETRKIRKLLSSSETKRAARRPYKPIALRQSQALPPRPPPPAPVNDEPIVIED
UniProt Q15390: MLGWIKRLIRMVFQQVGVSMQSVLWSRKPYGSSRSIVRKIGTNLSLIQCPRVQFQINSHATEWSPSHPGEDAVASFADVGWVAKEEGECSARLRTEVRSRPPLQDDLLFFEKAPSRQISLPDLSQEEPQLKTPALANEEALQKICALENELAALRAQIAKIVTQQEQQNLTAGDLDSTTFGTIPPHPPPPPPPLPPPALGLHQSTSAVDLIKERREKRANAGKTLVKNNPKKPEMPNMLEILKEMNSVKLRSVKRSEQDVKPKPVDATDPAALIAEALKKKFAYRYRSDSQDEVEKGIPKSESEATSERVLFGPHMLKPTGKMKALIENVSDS
UniProt Q9UBK8: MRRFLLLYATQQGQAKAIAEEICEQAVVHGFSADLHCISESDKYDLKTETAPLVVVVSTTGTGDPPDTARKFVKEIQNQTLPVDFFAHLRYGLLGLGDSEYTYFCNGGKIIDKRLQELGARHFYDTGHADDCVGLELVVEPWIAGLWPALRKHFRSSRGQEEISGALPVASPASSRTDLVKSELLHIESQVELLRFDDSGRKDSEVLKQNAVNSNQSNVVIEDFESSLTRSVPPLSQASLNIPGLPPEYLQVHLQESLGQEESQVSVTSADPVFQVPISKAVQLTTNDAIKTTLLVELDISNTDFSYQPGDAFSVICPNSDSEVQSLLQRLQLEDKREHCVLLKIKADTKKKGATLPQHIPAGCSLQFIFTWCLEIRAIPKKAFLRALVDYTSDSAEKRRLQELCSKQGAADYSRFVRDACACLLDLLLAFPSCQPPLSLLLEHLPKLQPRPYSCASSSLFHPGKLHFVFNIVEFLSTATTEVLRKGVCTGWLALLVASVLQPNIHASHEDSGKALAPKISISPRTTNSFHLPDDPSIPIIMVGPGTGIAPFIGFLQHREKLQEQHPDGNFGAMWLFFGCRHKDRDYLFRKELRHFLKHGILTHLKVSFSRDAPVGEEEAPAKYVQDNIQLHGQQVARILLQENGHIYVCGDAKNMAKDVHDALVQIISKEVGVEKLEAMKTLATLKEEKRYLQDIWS
UniProt Q9P0P8: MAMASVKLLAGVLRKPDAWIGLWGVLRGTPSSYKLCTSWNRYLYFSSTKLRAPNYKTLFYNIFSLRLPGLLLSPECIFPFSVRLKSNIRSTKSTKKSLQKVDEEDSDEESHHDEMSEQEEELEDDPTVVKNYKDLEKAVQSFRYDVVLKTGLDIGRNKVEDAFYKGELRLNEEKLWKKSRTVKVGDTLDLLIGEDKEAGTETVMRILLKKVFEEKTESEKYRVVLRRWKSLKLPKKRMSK
MTHFD1, A0A384N5Y3, UniProt A0A384N5Y3, whole entry, looked up: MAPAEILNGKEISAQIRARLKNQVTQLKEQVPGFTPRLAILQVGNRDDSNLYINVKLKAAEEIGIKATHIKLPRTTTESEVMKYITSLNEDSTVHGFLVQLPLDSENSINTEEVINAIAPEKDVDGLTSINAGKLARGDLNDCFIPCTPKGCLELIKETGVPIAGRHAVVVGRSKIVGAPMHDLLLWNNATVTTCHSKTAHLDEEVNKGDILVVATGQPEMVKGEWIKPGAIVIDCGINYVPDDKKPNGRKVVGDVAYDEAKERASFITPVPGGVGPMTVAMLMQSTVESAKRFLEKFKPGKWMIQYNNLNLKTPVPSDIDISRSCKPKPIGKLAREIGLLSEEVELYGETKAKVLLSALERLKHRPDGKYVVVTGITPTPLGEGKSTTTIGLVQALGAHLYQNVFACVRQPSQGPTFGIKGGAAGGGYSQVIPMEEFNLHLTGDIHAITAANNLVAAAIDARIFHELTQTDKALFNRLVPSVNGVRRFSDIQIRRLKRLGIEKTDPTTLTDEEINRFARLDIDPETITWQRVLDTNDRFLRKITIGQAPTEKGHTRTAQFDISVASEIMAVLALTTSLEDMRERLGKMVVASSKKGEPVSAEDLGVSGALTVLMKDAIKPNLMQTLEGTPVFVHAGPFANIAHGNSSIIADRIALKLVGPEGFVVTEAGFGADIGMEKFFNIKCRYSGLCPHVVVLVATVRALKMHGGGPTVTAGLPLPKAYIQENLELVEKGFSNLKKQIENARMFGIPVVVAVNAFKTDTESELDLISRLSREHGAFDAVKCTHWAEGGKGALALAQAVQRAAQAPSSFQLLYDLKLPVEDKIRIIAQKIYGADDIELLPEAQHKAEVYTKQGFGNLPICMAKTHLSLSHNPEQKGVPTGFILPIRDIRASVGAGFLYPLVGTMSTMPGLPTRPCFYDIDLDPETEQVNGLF
UniProt P03905, whole entry, looked up: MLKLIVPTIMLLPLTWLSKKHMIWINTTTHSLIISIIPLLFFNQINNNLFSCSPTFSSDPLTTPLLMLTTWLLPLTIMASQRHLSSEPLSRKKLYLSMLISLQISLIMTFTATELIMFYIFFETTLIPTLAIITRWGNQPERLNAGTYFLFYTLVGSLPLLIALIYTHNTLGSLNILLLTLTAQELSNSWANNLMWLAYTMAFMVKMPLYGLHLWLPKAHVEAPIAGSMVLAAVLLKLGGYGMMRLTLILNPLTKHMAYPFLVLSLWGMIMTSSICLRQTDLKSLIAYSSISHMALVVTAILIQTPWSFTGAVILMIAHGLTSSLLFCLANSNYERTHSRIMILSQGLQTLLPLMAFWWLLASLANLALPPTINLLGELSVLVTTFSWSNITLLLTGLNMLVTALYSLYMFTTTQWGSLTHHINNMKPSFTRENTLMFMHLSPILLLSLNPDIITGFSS
UniProt Q9Y6C9: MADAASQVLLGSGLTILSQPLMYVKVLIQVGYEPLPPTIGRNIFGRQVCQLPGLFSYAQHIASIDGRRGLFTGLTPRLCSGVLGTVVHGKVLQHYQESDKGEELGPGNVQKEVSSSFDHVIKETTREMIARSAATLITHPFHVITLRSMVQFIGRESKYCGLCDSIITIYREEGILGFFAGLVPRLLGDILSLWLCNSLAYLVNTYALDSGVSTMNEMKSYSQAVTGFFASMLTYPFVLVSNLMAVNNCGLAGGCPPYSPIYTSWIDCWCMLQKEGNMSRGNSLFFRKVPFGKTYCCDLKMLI

Some of the results follow.

Compound in this assay: CN1CCN(CCOc2cc(OC3CCOCC3)c3c(Nc4c(Cl)ccc5c4OCO5)ncnc3c2)CC1 [saracatinib]
Briefly: log2 fold change, soluble protein after heating vs DMSO (PISA); higher = thermal stabilisation; K562 lysate, 10 uM; active = over 0.2 and 3.5 SD of the protein, either way, in both replicates (recomputed). In short, it runs like this: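 The values are log-two fold changes in thermal stability compared with solvent controls and come from duplicates. They were obtained by TMTpro 16plex LC-MS/MS, with channel sums equalised, on the supernatant after 21,000xg for 90 min. That supernatant came from crude K562 extract at 1 mg/mL protein treated with 10 μM compound for 30 min, heated for 3 min across 48°C-58°C, pooled and brought to 0.5% NP-40 at 4°C.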
Consider MTCL1 (UniProt Q9Y4B5), for which the log2 fold change was inactive: 0.003.
For the target MRPS23 (UniProt Q9Y3D9), the log2 fold change was inactive: 0.042.
Turning to MTMR1 (UniProt Q13613), the log2 fold change was inactive: 0.001.
Consider MSMO1 (UniProt Q15800), for which the log2 fold change was inactive: -0.003.
As for MSI2 (UniProt Q96DH6), the log2 fold change was inactive: -0.015.
Take MRPS11 (UniProt P82912): the log2 fold change is inactive: 0.103.
Turning to MTOR (UniProt P42345), the log2 fold change was inactive: 0.005.
Consider MRPL37 (UniProt Q9BZE1), for which the log2 fold change is inactive: 0.005.
MRPL38 (UniProt Q96DV4): the log2 fold change was inactive: 0.046.
In the case of MRPS27 isoform 2 (UniProt Q92552), the log2 fold change was inactive: 0.013.
In the case of MRRF (UniProt Q96E11), the log2 fold change was inactive: 0.012.
In the case of MRPS6 (UniProt P82932), the log2 fold change was inactive: 0.01.
Regarding MRPL43 isoform 4 (UniProt Q8N983), the log2 fold change is inactive: 0.
Consider MTA1 (UniProt Q13330), for which the log2 fold change is inactive: 0.018.
MTFR1 (UniProt Q15390): the log2 fold change was inactive: 0.015.
In the case of MRPS16 (UniProt Q9Y3D3) it was inactive: 0.045.
In the case of MTRR isoform 1 (UniProt Q9UBK8) it was inactive: 0.006; in that of MTRES1 (UniProt Q9P0P8), inactive: -0.088; in that of MTHFD1, A0A384N5Y3, inactive: -0.012.
For the target MT-ND4 (UniProt P03905), the log2 fold change was inactive: 0.081.
With MTCH2 (UniProt Q9Y6C9), the log2 fold change is inactive: -0.011.
As to MRPS7 (UniProt Q9Y2R9), the log2 fold change was inactive: 0.001.
As for MTM1 (UniProt Q13496), the log2 fold change is inactive: -0.026.
